Earlier results in patent US9789098B2, “Nootropic compositions for improving memory performance” (Pharnext, priority 2012, dated 2017).

Settings: scopolamine, reference [34]; cited from earlier work

For `CN1[C@@H]2C[C@@H](OC(=O)[C@H](CO)c3ccccc3)C[C@H]1[C@@H]1O[C@@H]12` [Scopolamine, scopolamine], which Tmax is on record?
Its Tmax is “about 3 hours”.
